Experimental data reported in PubChem BioAssay AID1347076 (National Center for Advancing Translational Sciences (NCATS), 2019).
Screen size: about 400,000 compounds; about 13,000 (3.2%) were called active. The shares of active, inactive and inconclusive entries below differ from those in the screen. Calls follow the shape of the dose curve; as a rule, active = well fitted cell-killing curve with a large enough effect; inconclusive = small, poorly fitted or top-dose-only effect, or effect the other way; inactive = flat fitted curve, though single readings scatter. Potencies of inconclusive entries are doubtful fits and often do not repeat.

Test: qHTS assay for MDR1-selective chemotherapeutics: Primary screen using the drug-selected MDR subline cells KB-V1; also: nearly all actives have a fitted effect of over 60% in size
Conditions: KB-V1 MDR cells viability, CellTiter-Glo, 72 h; activity change, negative = cytotoxicity: at 46.1 µM (top of the series)
Method in brief: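 Drug-selected KB-V1 cells, grown in DMEM lacking phenol red with 10% FBS, receive compound titrations; after three days at 37 degrees C, surviving cell ATP is quantified by CellTiter-Glo luminescence and responses normalized and curve-fitted.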
% is scaled to controls: 0 for no effect and ±100 for the full control effect; potency is read from the fitted curve at half-maximal effect.

Question: With `NNC(=O)c1ccc(Cl)cc1Cl` as the compound, how does the Potency read?
Answer: inconclusive: 29.1 µM [rising, single point]

Question: For `Cc1cc(C)c2nc(SCC(=O)NCCN3C(=O)CSC3=O)cc(C)c2c1`, which Potency is on record?
Answer: inconclusive: 11.6 µM [cytotoxic, partial curve]

Question: With `O=C1c2cccc3cccc(c23)C(=O)N1CC1CCN(CC(O)COCc2ccc3c(c2)OCO3)CC1` (stereo unspecified) as the compound, how does the Potency read?
Answer: inconclusive: 6.51 µM [cytotoxic, partial curve, poor fit]

Question: With `CCN(CC)P(=O)(Nc1ccccc1Br)c1ccc(N(C)C)cc1NC(=O)c1ccco1` (stereo unspecified) as the compound, how does the “activity change, negative = cytotoxicity” value read?
Answer: inactive: -27.2%

Question: With `O=C(Nc1nnc([C@@H]2C[C@H](O)[C@@H](CO)O2)s1)Nc1cccc2c1CCCC2` as the compound, how does the “activity change, negative = cytotoxicity” value read?
Answer: inactive: 8.52%

Question: For `CC(NCCOCCOc1ccccc1)c1ccccc1` (stereo unspecified), which Potency is on record?
Answer: inconclusive: 11.6 µM [cytotoxic, partial curve, poor fit]

Question: Which Potency does the source give for `C[C@H](CO)N1C[C@H](C)[C@H](CN(C)CC2CCCCC2)Oc2ccc(NS(=O)(=O)c3ccc(F)cc3)cc2CC1=O` here?
Answer: inconclusive: 29.1 µM [cytotoxic, partial curve, poor fit]

Question: With `COc1ccc(NC(=O)C[C@H]2C(=O)N(C3CCCCC3)C[C@@H]2C)cc1` as the compound, how does the Potency read?
Answer: inconclusive: 20.6 µM [cytotoxic, partial curve, poor fit]

Question: With `CCCC(C)NC(=O)CSc1nnc(-c2c[nH]c3ccccc23)o1` (stereo unspecified) as the compound, how does the Potency read?
Answer: inconclusive: 11.6 µM [cytotoxic, partial curve]

Question: For `CCOC(=O)[C@]12CCCC=C1N(Cc1cccc3ccccc13)C(=O)[C@H](CC(=O)NCCCN1CCCC1=O)C2`, which Potency is on record?
Answer: inconclusive: 16.4 µM [cytotoxic, single point]

Question: With `Fc1ccccc1CSc1nncn1NCc1cccs1` as the compound, how does the Potency read?
Answer: inconclusive: 18.4 µM [cytotoxic, partial curve]

Question: With `COc1ccc(-c2noc(CCC(=O)NCCN(C)Cc3ccccc3)n2)cc1` as the compound, how does the Potency read?
Answer: inconclusive: 20.6 µM [cytotoxic, single point]

Question: For `OC[C@@H]1CN(Cc2ccc(Cl)cc2)C[C@H](n2cnc3c(NC4CCC4)ncnc32)O1`, which “activity change, negative = cytotoxicity” value is on record?
Answer: inactive: 1.22%

Question: For `CN1CCN(c2ncnc3c2ncn3[C@H]2CN(Cc3ccc(C(=O)O)cc3)C[C@@H](CO)O2)CC1`, which “activity change, negative = cytotoxicity” value is on record?
Answer: inactive: -1.59%

Question: For `O=C1CN(C(=O)c2ccc(S(=O)(=O)N3CCCC3)cc2)C(c2ccccc2)c2cc(F)ccc2N1` (stereo unspecified), which Potency is on record?
Answer: inconclusive: 9.2 µM [rising, partial curve, poor fit]

Question: Which Potency does the source give for `CCc1ccccc1NC(=S)N(CCN(C)C)C(C)c1cccnc1` (stereo unspecified) here?
Answer: inconclusive: 25.9 µM [cytotoxic, single point]

Question: With `COc1cc(C2C(Oc3ccccc3C)C(=O)N2Cc2ccc(F)cc2)cc(OC)c1OC` (stereo unspecified) as the compound, how does the “activity change, negative = cytotoxicity” value read?
Answer: inactive: -20.7%

Question: With `CC12CC(O)C3C(CCC4=CC(=O)CCC43C)C1CCC2=CCO` (stereo unspecified) as the compound, how does the Potency read?
Answer: active: 18.4 µM

Question: For `CCn1nc(C)c(NS(=O)(=O)c2ccc(C)cc2)c1C`, which Potency is on record?
Answer: active: 16.4 µM

Question: With `CC(=O)c1ccc(N2CCN(C(=O)c3cc(-c4ccncc4)nc4ccc(Br)cc34)CC2)cc1` as the compound, how does the “activity change, negative = cytotoxicity” value read?
Answer: inactive: -19.6%

Question: Which “activity change, negative = cytotoxicity” value does the source give for `O=C(CSc1nnc(-c2ccccc2)c(-c2ccccc2)n1)N1CCOCC1` here?
Answer: inactive: -7.38%

Question: For `CC(NC(=O)CSc1nc2c(c(C(F)(F)F)n1)CCc1ccccc1-2)c1ccccc1` (stereo unspecified), which Potency is on record?
Answer: inconclusive: 16.4 µM [cytotoxic, single point]

Question: For `O=C(CSc1n[nH]c(-c2ccc(Br)cc2)n1)NC1CCCC1`, which activity change, negative = cytotoxicity is on record?
Answer: inconclusive: -39.8% [cytotoxic]

Question: With `O=C(Cn1ncc2c1-c1ccccc1OC2)N1CCN(Cc2ccccc2)CC1` as the compound, how does the “activity change, negative = cytotoxicity” value read?
Answer: inactive: -2.37%

Question: For `COC(=O)c1cccc(NC(=O)CN2CCN(Cc3ccccc3)CC2)c1`, which “activity change, negative = cytotoxicity” value is on record?
Answer: inactive: 6.96%

Question: Which Potency does the source give for `Cc1ccc(Cl)cc1NC(=O)c1cc2ccccc2cc1O` here?
Answer: inconclusive: 14.6 µM [cytotoxic, partial curve, poor fit]

Question: With `C/C(=N\S(=O)(=O)c1ccc(C)cc1)N1CCN(S(=O)(=O)c2ccccc2)C1C(C)C` (stereo unspecified) as the compound, how does the Potency read?
Answer: active: 5.8 µM

Question: For `Cc1cc(C)n(-c2ccc(-n3ccnc3)nn2)n1`, which Potency is on record?
Answer: inconclusive: 29.1 µM [cytotoxic, single point]

Question: For `S=C(NCc1ccco1)N1CCN(c2ccc(Cl)cc2)CC1`, which Potency is on record?
Answer: inconclusive: 20.6 µM [cytotoxic, single point]

Question: With `Cc1cccnc1NC(=O)CSc1ncnc2sc(C)c(C)c12` as the compound, how does the Potency read?
Answer: active: 14.6 µM

Question: Which “activity change, negative = cytotoxicity” value does the source give for `Cc1ccc(-n2nc(CN3CCOCC3)c(-c3ccccc3)c2N)cc1Cl` here?
Answer: inactive: 17.8%

Question: With `CN(C)c1ccc(Nc2ncnc3c2c(-c2ccccc2)cn3-c2cccc(Cl)c2)cc1` as the compound, how does the “activity change, negative = cytotoxicity” value read?
Answer: inactive: 0%

Question: Which Potency does the source give for `CC1C(C#N)=C(N)OC2=C1C(=O)CC(C)(C)C2` (stereo unspecified) here?
Answer: inconclusive: 9.2 µM [rising, partial curve, poor fit]

Question: Which “activity change, negative = cytotoxicity” value does the source give for `CCOC(=O)c1cc2c(=O)n3ccccc3nc2n(C(C)C)c1=NC(=O)C(C)(C)Oc1ccc(Cl)cc1` here?
Answer: inactive: -6.25%

Question: Which Potency does the source give for `C=CCOCCN(CC)CC` here?
Answer: inconclusive: 25.9 µM [rising, partial curve, poor fit]

Question: For `O=C1c2ccccc2C(O)N1c1cccnc1` (stereo unspecified), which “activity change, negative = cytotoxicity” value is on record?
Answer: inactive: -3.03%

Question: Which “activity change, negative = cytotoxicity” value does the source give for `O=C(O)c1cc(N2N=C(C(F)(F)F)/C(=C/C=C/c3ccco3)C2=O)ccc1Cl` here?
Answer: inactive: -4.63%

Question: With `O=C(N/N=C/c1cccs1)c1n[nH]c2c1CCCC2` as the compound, how does the Potency read?
Answer: inconclusive: 29.1 µM [cytotoxic, single point]

Question: For `Cc1cc(C)c(C)c(OCCCOc2cccc3cccnc23)c1`, which Potency is on record?
Answer: inconclusive: 29.1 µM [cytotoxic, single point]

Question: For `CCN(C(=O)c1noc2c1COc1ccc(C)cc1-2)c1cccc(C)c1`, which Potency is on record?
Answer: inconclusive: 29.1 µM [cytotoxic, single point]

Question: With `O=C(Nc1ccccc1F)c1nc(S(=O)(=O)Cc2ccccc2F)ncc1Cl` as the compound, how does the “activity change, negative = cytotoxicity” value read?
Answer: inactive: 4.46%

Question: Which “activity change, negative = cytotoxicity” value does the source give for `Cc1cccc(N2CCN(C(=O)c3ccc4nc(-c5ccco5)c(-c5ccco5)nc4c3)CC2C)c1` (stereo unspecified) here?
Answer: inactive: -13.2%

Question: For `COc1ccc2[nH]c(C)c(C(=O)CN(C)CC(OC)OC)c2c1`, which “activity change, negative = cytotoxicity” value is on record?
Answer: inactive: -7.46%

Question: Which Potency does the source give for `Cc1cccc(N2C(=O)C(O)=C(C(=O)c3cccs3)C2c2cccc(Oc3ccccc3)c2)n1` (stereo unspecified) here?
Answer: inconclusive: 29.1 µM [cytotoxic, single point]

Question: Which “activity change, negative = cytotoxicity” value does the source give for `CCC(=O)Nc1ccc(C(=O)NNC(=O)c2cc(OC)c(OC)c(OC)c2)cc1` here?
Answer: inactive: 1.03%

Question: Which Potency does the source give for `Cc1c(C(=O)Nc2ccc3c(c2)OCCO3)sc2nc(-c3ccccc3)cn12` here?
Answer: active: 11.6 µM
